Assay results from PubChem BioAssay AID256 (DTP/NCI, 2004).
The list does not hold the whole screen: it is rich in T/C values a quarter to a half above the control, in often repeated tests (any T/C) and in doses without a T/C. Other doses and runs of a compound stand elsewhere. T/C: endpoint of the treated group in % of that of the vehicle group. Some entries give survivors of the animals treated and no T/C: the source files T/C as zero there, which appears to mark a toxic dose or a test without result, not a measured value. Some survivor counts are full or nearly so, which does not show that the dose was tolerated: survival well below the control is almost never listed, so the zero probably covers shortened survival too. Survivors were counted at the toxicity check, usually on the fifth day, unless a day is given; later deaths do not show. Schedules are NCI's codes, read here as Q, the interval in days (D) or hours (H), X, the number of doses. Some entries hold several experiments; the results are listed from low to high. For survival time, this PubChem deposit counts one and a half times the control or more as active, and values a quarter to a half above the control carry no call in these data; other NCI protocols may use other cut-offs. Some T/C values are followed by the survivors on the day toxicity was checked, most often the fifth; where none is given, no animal had died by that day.

System: CD2F1 mice, L1210 leukemia ip, survival T/C
Test: NCI In Vivo Anticancer Drug Screen. Data for tumor model L1210 Leukemia (intraperitoneal) in CD2F1 (CDF1) mice
Conditions: higher T/C = longer survival
Protocol: The antitumor activity of compounds was measured in mice bearing transplantable tumors. Survival or tumor size were measured and the results are expressed as the measurement made in the treated group (T) divided by the measurement made in the vehicle treated control group (C). The tumor model used in this assay is L1210 Leukemia (intraperitoneal) in CD2F1 (CDF1) mice

[1] = T/C endpoint: mean survival time, dose: 400.0 mg/kg/injection, schedule: Q04DX003 (ip), vehicle: saline with Tween-80
[2] = T/C endpoint: mean survival time, dose: 400.0 mg/kg/injection, schedule: Q01DX009 (ip), vehicle: saline with Tween-80
[3] = T/C endpoint: mean survival time, dose: 200.0 mg/kg/injection, schedule: Q01DX009 (ip), vehicle: water
[4] = T/C endpoint: mean survival time, dose: 200.0 mg/kg/injection, schedule: Q04DX003 (ip), vehicle: saline with Tween-80
[5] = T/C endpoint: mean survival time, dose: 20.0 mg/kg/injection, schedule: Q01DX009 (ip), vehicle: saline with Tween-80
[6] = T/C endpoint: mean survival time, dose: 100.0 mg/kg/injection, schedule: Q04DX003 (ip), vehicle: saline
[7] = T/C endpoint: mean survival time, dose: 200.0 mg/kg/injection, schedule: Q04DX003 (ip), vehicle: saline
[8] = T/C endpoint: mean survival time, dose: 400.0 mg/kg/injection, schedule: Q04DX003 (ip), vehicle: saline

## O=c1cc(-c2ccccc2)nc(N[N+](=O)[O-])[nH]1
[1]
  survivor count: 3 of 6

## O=C(CNC(=O)Nc1cccc([N+](=O)[O-])c1)NNC(=O)Nc1ccc(Cl)c([N+](=O)[O-])c1
[2]
  survivor count: 4 of 6

## C#CC[N+](C)(C)CCNC(=O)CCCCCCCCCCCCCCC
T/C endpoint: mean survival time, dose: 150.0 mg/kg/injection, schedule: Q01DX001 (ip), vehicle: saline
  survivor count: 0 of 6
T/C endpoint: mean survival time, dose: 300.0 mg/kg/injection, schedule: Q01DX001 (ip), vehicle: saline
  survivor count: 0 of 6

## CCCCCCCCCCCCCCCC(=O)N(CCCN(C)C)CCCN(CCCN(C)C)C(=O)CCCCCCCCCCCCCCC
T/C endpoint: mean survival time, dose: 25.0 mg/kg/injection, schedule: Q01DX009 (ip), vehicle: water
  survivor count: 3 of 6
T/C endpoint: mean survival time, dose: 50.0 mg/kg/injection, schedule: Q01DX009 (ip), vehicle: water
  survivor count: 3 of 6
T/C endpoint: mean survival time, dose: 100.0 mg/kg/injection, schedule: Q01DX009 (ip), vehicle: water
  survivor count: 0 of 6
[3]
  survivor count: 0 of 6

## CC1=CCCN(CCc2c[nH]c3ccccc23)C1
[4]
  survivor count: 1 of 6
T/C endpoint: mean survival time, dose: 400.0 mg/kg/injection, schedule: Q01DX001 (ip), vehicle: saline with Tween-80
  survivor count: 0 of 6

## O=C(CC(=O)C(F)(F)F)c1ccccc1.O=C(CC(=O)C(F)(F)F)c1ccccc1.[Cu]
T/C endpoint: mean survival time, dose: 100.0 mg/kg/injection, schedule: Q04DX003 (ip), vehicle: saline with Tween-80
  survivor count: 3 of 6
[4]
  survivor count: 1 of 6
[1]
  survivor count: 0 of 6

## O=C(c1ccccc1)C1CC2(c3ccccc3)C(=O)C1(c1ccccc1)c1c2c2ccccc2c2ccccc12 (configuration not stated)
T/C endpoint: mean survival time, dose: 200.0 mg/kg/injection, schedule: Q01DX001 (ip), vehicle: saline with Tween-80
  survivor count: 3 of 3

## CCCC(=O)NC1=C(Cl)C(=O)c2ccccc2C1=O
T/C endpoint: mean survival time, dose: 40.0 mg/kg/injection, schedule: Q01DX001 (ip), vehicle: saline
  survivor count: 0 of 6
T/C endpoint: mean survival time, dose: 80.0 mg/kg/injection, schedule: Q01DX001 (ip), vehicle: saline
  survivor count: 0 of 6

## O=S(CC(O)c1ccccc1)c1ccccc1 (configuration not stated)
[1]
  survivor count: 5 of 6

## N#C/C(=C\C1CC(Br)CCC1O)C1CCC([N+](=O)[O-])CC1 (configuration not stated)
T/C endpoint: mean survival time, dose: 200.0 mg/kg/injection, schedule: Q01DX009 (ip), vehicle: saline with Tween-80
  survivor count: 1 of 3

## Cc1cc([NH-])c([NH-])cc1C.[Cl][Pt+2][Cl]
T/C endpoint: mean survival time, dose: 5.0 mg/kg/injection, schedule: Q01DX009 (ip), vehicle: saline with Tween-80
  T/C: 130 and 137 % of control
[5]
  T/C: 128 % of control
  survivor count: 6 of 8
T/C endpoint: mean survival time, dose: 40.0 mg/kg/injection, schedule: Q01DX009 (ip), vehicle: saline with Tween-80
  survivor count: 4 of 8 and 7 of 8

## N#CC(=C1SCS1)[N+](=O)[O-]
T/C endpoint: mean survival time, dose: 6.0 mg/kg/injection, schedule: Q01DX009 (ip), vehicle: saline with Tween-80
  survivor count: 6 of 6
T/C endpoint: mean survival time, dose: 12.0 mg/kg/injection, schedule: Q01DX009 (ip), vehicle: saline with Tween-80
  survivor count: 2 of 6

## CC(=O)C1CN(C(C)(C)C)C1
[6]
  survivor count: 3 of 6
[7]
  survivor count: 0 of 6
[8]
  survivor count: 0 of 6

## O=S(=O)(n1ccnc1)C(F)(F)F
T/C endpoint: mean survival time, dose: 100.0 mg/kg/injection, schedule: Q01DX001 (ip), vehicle: saline
  survivor count: 0 of 6
T/C endpoint: mean survival time, dose: 200.0 mg/kg/injection, schedule: Q01DX001 (ip), vehicle: saline
  survivor count: 0 of 6
T/C endpoint: mean survival time, dose: 400.0 mg/kg/injection, schedule: Q01DX001 (ip), vehicle: saline
  survivor count: 0 of 6

## CC[C@]12CN3CCc4c([nH]c5ccccc45)[C@@](C(=O)OC)(c4cc5c(cc4OC)N(C)[C@H]4[C@@](O)(C(=O)OC)[C@H](OC(C)=O)[C@]6(CC)C=CCN7CC[C@]54[C@@H]76)CC(C3)[C@H]1O2 (some centres not stated)
T/C endpoint: mean survival time, dose: 6.25 mg/kg/injection, schedule: Q01DX009 (ip), vehicle: saline
  T/C: 129 % of control [5 of 6 alive]
T/C endpoint: mean survival time, dose: 12.5 mg/kg/injection, schedule: Q01DX009 (ip), vehicle: saline
  survivor count: 4 of 6
T/C endpoint: mean survival time, dose: 25.0 mg/kg/injection, schedule: Q01DX009 (ip), vehicle: saline
  survivor count: 1 of 6
T/C endpoint: mean survival time, dose: 25.0 mg/kg/injection, schedule: Q04DX003 (ip), vehicle: saline
  T/C: 132 % of control
[6]
  survivor count: 0 of 6
[7]
  survivor count: 0 of 6
[8]
  survivor count: 0 of 6
T/C endpoint: median survival time, dose: 4.0 mg/kg/injection, schedule: Q03HX008 (ip), vehicle: saline
  T/C: 140 % of control
T/C endpoint: median survival time, dose: 4.0 mg/kg/injection, schedule: Q03HX016 (ip), vehicle: saline
  T/C: 125 % of control [8 of 10 alive]
T/C endpoint: median survival time, dose: 4.0 mg/kg/injection, schedule: Q03HX024 (ip), vehicle: saline
  T/C: 130 % of control
T/C endpoint: median survival time, dose: 8.0 mg/kg/injection, schedule: Q01DX009 (ip), vehicle: saline
  T/C: 125 % of control
T/C endpoint: median survival time, dose: 8.0 mg/kg/injection, schedule: Q03HX008 (ip), vehicle: saline
  survivor count: 3 of 10
T/C endpoint: median survival time, dose: 8.0 mg/kg/injection, schedule: Q03HX016 (ip), vehicle: saline
  survivor count: 5 of 10
T/C endpoint: median survival time, dose: 8.0 mg/kg/injection, schedule: Q03HX024 (ip), vehicle: saline
  survivor count: 5 of 10
T/C endpoint: median survival time, dose: 16.0 mg/kg/injection, schedule: Q04DX003 (ip), vehicle: saline
  T/C: 130 % of control
T/C endpoint: median survival time, dose: 32.0 mg/kg/injection, schedule: Q01DX009 (ip), vehicle: saline
  survivor count: 5 of 10
T/C endpoint: median survival time, dose: 32.0 mg/kg/injection, schedule: Q04DX003 (ip), vehicle: saline
  T/C: 130 % of control
T/C endpoint: median survival time, dose: 32.0 mg/kg/injection, schedule: Q08DX002 (ip), vehicle: saline
  T/C: 125 % of control
T/C endpoint: median survival time, dose: 64.0 mg/kg/injection, schedule: Q01DX001 (ip), vehicle: saline
  T/C: 125 % of control
T/C endpoint: median survival time, dose: 64.0 mg/kg/injection, schedule: Q08DX002 (ip), vehicle: saline
  survivor count: 6 of 10

## CCOC(=O)NOP(=O)(N1CC1)N1CC1
T/C endpoint: mean survival time, dose: 25.0 mg/kg/injection, schedule: Q04DX002 (ip), vehicle: saline with Tween-80
  T/C: 128 % of control

## Cc1c2ccccc2cc2c1ccc1cccc(F)c12
T/C endpoint: median survival time, dose: 100.0 mg/kg/injection, schedule: Q04DX003 (ip), vehicle: saline with Tween-80
  survivor count: 3 of 3

## c1ccc(C[As+](c2ccccc2)(c2ccccc2)c2ccccc2)cc1
T/C endpoint: mean survival time, dose: 50.0 mg/kg/injection, schedule: Q04DX002 (ip), vehicle: saline with Tween-80
  survivor count: 1 of 3
T/C endpoint: mean survival time, dose: 100.0 mg/kg/injection, schedule: Q04DX002 (ip), vehicle: saline with Tween-80
  survivor count: 0 of 3

## CCCCNc1ncnc2c1cnn2C
T/C endpoint: median survival time, dose: 250.0 mg/kg/injection, schedule: Q01DX009 (ip), vehicle: saline
  survivor count: 0 of 6

## CC(=O)CC(C)=O.CC(=O)CC(C)=O.O=N[O-].O=N[O-].[Co]
T/C endpoint: median survival time, dose: 50.0 mg/kg/injection, schedule: Q01DX009 (ip), vehicle: saline with Tween-80
  T/C: 127 % of control
T/C endpoint: median survival time, dose: 100.0 mg/kg/injection, schedule: Q01DX009 (ip), vehicle: saline with Tween-80
  survivor count: 1 of 6 and 3 of 6
T/C endpoint: median survival time, dose: 200.0 mg/kg/injection, schedule: Q01DX009 (ip), vehicle: saline with Tween-80
  survivor count: 0 of 6

## C1CNCCNCCNCCN1
[3]
  survivor count: 0 of 6

## O=C1CC=C2C3CC4N(CCC45c4ccccc4N1C25)C/C3=C\CBr (configuration not stated)
T/C endpoint: mean survival time, dose: 75.0 mg/kg/injection, schedule: Q01DX001 (ip), vehicle: other
  survivor count: 0 of 6
T/C endpoint: mean survival time, dose: 150.0 mg/kg/injection, schedule: Q01DX001 (ip), vehicle: other
  survivor count: 0 of 6
T/C endpoint: mean survival time, dose: 300.0 mg/kg/injection, schedule: Q01DX001 (ip), vehicle: other
  survivor count: 0 of 6

## CCOC(=O)Nc1cc(F)c(F)cc1F
[2]
  survivor count: 0 of 6

## OC(CCl)Cc1ccccc1 (configuration not stated)
[4]
  survivor count: 3 of 6
[1]
  survivor count: 0 of 6

## COc1ccccc1NC(=O)NCCN(C)c1ccccc1
T/C endpoint: mean survival time, dose: 400.0 mg/kg/injection, schedule: Q04DX002 (ip), vehicle: saline with Tween-80
  survivor count: 3 of 3

## Cc1cc2[nH]cnc2cc1Cl
T/C endpoint: mean survival time, dose: 200.0 mg/kg/injection, schedule: Q01DX009 (ip), vehicle: saline
  survivor count: 1 of 3
